For the series, the target named is flk-1/fms chimeric receptor (mouse flk-1 extracellular / human c-fms) (Mus musculus / Homo sapiens) (UniProt P35918). The experiment in a line: competition with a labelled probe. The settings on record: PS (phosphorothioate oligodeoxynucleotide), protein on the cell surface, single-stranded DNA.

Amino acid sequences for entries named in this document (tags omitted). A change or cut given only in a name is not applied to a line headed by its entry.
UniProt P35918: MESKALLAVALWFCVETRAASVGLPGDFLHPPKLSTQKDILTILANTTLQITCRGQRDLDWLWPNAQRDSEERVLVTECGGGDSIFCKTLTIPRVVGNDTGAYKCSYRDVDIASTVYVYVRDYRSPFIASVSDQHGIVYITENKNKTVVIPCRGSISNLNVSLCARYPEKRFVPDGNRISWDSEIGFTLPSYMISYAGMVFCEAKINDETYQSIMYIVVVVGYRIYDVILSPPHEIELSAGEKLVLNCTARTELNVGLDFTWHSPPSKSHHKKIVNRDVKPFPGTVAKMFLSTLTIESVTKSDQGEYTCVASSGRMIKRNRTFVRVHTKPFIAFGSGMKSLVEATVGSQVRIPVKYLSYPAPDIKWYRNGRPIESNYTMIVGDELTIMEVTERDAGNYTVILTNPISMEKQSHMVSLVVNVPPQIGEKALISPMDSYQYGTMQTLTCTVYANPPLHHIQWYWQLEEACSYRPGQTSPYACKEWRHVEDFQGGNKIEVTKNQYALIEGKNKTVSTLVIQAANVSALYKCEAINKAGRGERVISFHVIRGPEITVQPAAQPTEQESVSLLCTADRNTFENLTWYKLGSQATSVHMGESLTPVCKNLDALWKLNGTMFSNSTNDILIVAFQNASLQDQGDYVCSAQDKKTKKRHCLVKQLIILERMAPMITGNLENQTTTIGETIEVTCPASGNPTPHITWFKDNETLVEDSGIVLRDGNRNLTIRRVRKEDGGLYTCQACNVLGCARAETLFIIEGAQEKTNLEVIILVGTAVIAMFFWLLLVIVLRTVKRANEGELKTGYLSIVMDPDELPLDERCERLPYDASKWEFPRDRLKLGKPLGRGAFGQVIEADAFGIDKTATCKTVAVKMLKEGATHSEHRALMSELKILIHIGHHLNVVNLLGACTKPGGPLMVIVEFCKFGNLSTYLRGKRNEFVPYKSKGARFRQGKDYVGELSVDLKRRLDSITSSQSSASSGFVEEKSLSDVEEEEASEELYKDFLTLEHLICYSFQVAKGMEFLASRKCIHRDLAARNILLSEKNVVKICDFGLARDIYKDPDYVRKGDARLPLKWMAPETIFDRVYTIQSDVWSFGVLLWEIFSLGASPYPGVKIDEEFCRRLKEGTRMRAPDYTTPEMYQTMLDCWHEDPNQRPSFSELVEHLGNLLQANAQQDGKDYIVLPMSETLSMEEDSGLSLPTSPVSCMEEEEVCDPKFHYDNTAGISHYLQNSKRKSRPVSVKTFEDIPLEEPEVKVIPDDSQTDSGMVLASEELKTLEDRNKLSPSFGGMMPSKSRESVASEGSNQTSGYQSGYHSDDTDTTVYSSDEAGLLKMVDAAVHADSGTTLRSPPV

For at least one entry, the source does not settle the construct or the ends of the probe. Where cells or extracts were used, other partners may take part.

Take GTTGGGTTAT [#2T]: the binding result (variant of #2) is given as “binds”.

Turning to GCCGGGCCAT [#2], the binding result is given as “binds”.
